From PubChem BioAssay AID1671190 (National Center for Advancing Translational Sciences (NCATS), 2021)
The whole screen tested about 580,000 compounds, of which about 6,100 (1.1%) were called active. This list was built around the results that the source calls inconclusive (neither active nor inactive); the mix of calls is not that of the screen. Calls follow the shape of the dose curve; as a rule, active = well fitted inhibition curve with a large enough effect; inconclusive = small, poorly fitted or top-dose-only effect, or another doubt; inactive = no such curve, though single readings can be large or run the other way. Potencies of inconclusive entries are doubtful fits and often do not repeat.

By UniProt entry, the sequences of proteins in these tests, tags left out.
UniProt P18054, whole entry, looked up: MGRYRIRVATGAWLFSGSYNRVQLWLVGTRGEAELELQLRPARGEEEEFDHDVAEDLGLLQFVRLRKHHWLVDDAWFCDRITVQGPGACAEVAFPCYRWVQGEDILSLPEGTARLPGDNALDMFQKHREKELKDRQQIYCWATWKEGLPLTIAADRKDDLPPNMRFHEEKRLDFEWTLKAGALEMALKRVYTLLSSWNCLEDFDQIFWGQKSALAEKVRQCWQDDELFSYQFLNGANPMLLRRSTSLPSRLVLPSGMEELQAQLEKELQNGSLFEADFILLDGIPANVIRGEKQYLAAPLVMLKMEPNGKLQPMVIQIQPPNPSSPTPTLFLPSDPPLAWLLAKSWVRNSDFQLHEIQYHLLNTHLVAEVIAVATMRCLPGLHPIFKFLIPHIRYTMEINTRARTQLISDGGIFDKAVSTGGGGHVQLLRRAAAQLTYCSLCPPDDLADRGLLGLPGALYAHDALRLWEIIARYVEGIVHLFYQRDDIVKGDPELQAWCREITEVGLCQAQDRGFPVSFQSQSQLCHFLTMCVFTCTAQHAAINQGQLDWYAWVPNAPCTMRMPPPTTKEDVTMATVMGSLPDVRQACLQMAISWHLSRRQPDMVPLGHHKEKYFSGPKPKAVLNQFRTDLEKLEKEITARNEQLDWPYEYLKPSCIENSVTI

molecular target: Polyunsaturated fatty acid lipoxygenase ALOX12 (Homo sapiens) (UniProt P18054); test: Primary qHTS assay for inhibitors of human arachidonate 12S-lipoxygenase (ALOX12): Round 2; settings: purified 12hLO, xylenol orange hydroperoxide absorbance; activity change, negative = inhibition: at 108 µM (top of the series) unless noted
Method in brief: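 Purified human 12hLO (150 nM final) in 25 mM Hepes, 0.01% Triton X-100, pH 7.0 was preincubated 15 min at room temperature with compound. Then 40 uM arachidonic acid was added, 30 min. Hydroperoxide was read by Fe-XO absorbance ratio 573/405 nm.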
% is scaled to controls: 0 for no effect and ±100 for the full control effect; potency is read from the fitted curve at half-maximal effect.

Row | SMILES | Potency | activity change, negative = inhibition
1 | CC(C)(C)c1ccc(S(=O)(=O)NCCN2CCOCC2)cc1 | inconclusive: 1.78 µM [inhibitor, full curve] | 
2 | CCCN(CC(=O)Nc1cc(Cl)ccc1Cl)C(=O)/C=C/c1cc(OC)ccc1OC |  | inactive: 10.9%
3 | CCCn1nnc(NCc2ccc(OCc3cccs3)c(OC)c2)n1 |  | inactive: -0.164%
4 | CCn1c(Oc2ccccc2F)nc2c1c(=O)n(C)c(=O)n2C | inconclusive: 126 µM [inhibitor, single point] | 
5 | CC12CCC(C(=O)O/N=C3\CC4CCC3(C)C4(C)C)(CC1=O)C2(C)C (stereo not given) |  | inactive: 5.29%
6 | COc1ccc(N2CCN(Cc3cc(=O)oc4cc(C)c(Cl)cc34)CC2)cc1 | inconclusive: 79.4 µM [inhibitor, partial curve, poor fit] | 
7 | COc1ccc(/C=N/Nc2nc(C)cc(=O)[nH]2)cc1OC | inconclusive: 25.1 µM [inhibitor, partial curve, poor fit] | 
8 | O=C1/C(=C/c2cccs2)SC(=S)N1CCC(=O)N1CCCCC1CCO (stereo not given) | inconclusive: 44.7 µM [inhibitor, partial curve, poor fit] | 
9 | COc1ccc(/C(O)=C2/C(=O)C(=O)N(CCN(C)C)C2c2ccccn2)cc1OC (stereo not given) |  | inactive: -12%
10 | COc1ccc(N2C(=O)C(Cl)=C(N(CCO)Cc3ccccc3)C2=O)cc1 | inconclusive: 89.1 µM [inhibitor, single point] | 
11 | Cc1ccc(-c2c(C)c(-c3ccc(F)cc3)nc(N)c2C#N)o1 | inconclusive: 44.7 µM [inhibitor, single point] | 
12 | Cc1ccc(Cl)cc1N1CCN(S(=O)(=O)c2c(C)nc3scc(C)n3c2=O)CC1 | inconclusive: 100 µM [inhibitor, partial curve, poor fit] | 
13 | Cc1ccc(-c2noc(CSc3nnc(-c4ccncc4)n3-c3ccc(C)cc3)n2)cc1 |  | inactive: -0.235%
14 | O=C1C(Cl)=C(N2CCOCC2)C(=O)N1c1ccccc1Cl |  | inactive: -6.66%
15 | CCCc1noc(-c2ccn3c(CNC(=O)c4cccnc4)nnc3c2)n1 |  | inactive: 37.8%
16 | C[n+]1cn(CC(O)COCc2ccccc2)c2ccccc21 (stereo not given) | active: 39.8 µM | 
17 | CCC(CC)C(=O)NC[C@H]1O[C@@H](CC(=O)NCc2ccc(F)cc2)[C@H](O)[C@@H]1O |  | inactive: 2.04% [at 176 µM]
18 | O=C(Nc1ccccc1)c1snc2c(=O)[nH]cnc12 |  | inactive: -58.4%
19 | COc1cc(/C=N/N2CCN(Cc3ccc(Cl)cc3)CC2)cc(Br)c1O | inconclusive: 15.8 µM [inhibitor, partial curve, poor fit] | 
20 | Cc1cccc(OCCCC(=O)Nc2nccs2)c1C |  | inactive: -2.67%
21 | Cc1ccccc1NC(=O)CCC1CCCO1 (stereo not given) |  | inactive: 12.3%
22 | CCN(Cc1ccncc1)Cc1c(O)ccc2cc(Br)ccc12 | inconclusive: 1.58 µM [inhibitor, full curve, poor fit] | 
23 | CC(C)c1ccc(N2C(=O)C(Cl)=C(N3CCOCC3)C2=O)cc1 | inconclusive: 100 µM [inhibitor, partial curve, poor fit] | 
24 | COc1cc2ncnc(Nc3ccc(Cl)cc3F)c2cc1OC | active: 20 µM | 

Row | SMILES | Potency | activity change, negative = inhibition
25 | Cc1ccc(OCCCn2c(-c3ccc(Cl)cc3)nc3ccccc3c2=O)c(C)c1 |  | inconclusive: -33.6% [inhibitor]
26 | CCn1c(=O)[nH]c(=O)c2c(C(=O)O)cc(C3CC3)nc21 | inconclusive: 6.31 µM [inhibitor, full curve, poor fit] | 
27 | CN1CCCN(C(=O)c2cc3cc(Br)ccc3oc2=O)CC1 |  | inactive: 1.86%
28 | O=C(NC(NC(=S)Nc1cccc(Cl)c1)C(Cl)(Cl)Cl)OCc1ccccc1 (stereo not given) | inconclusive: 31.6 µM [inhibitor, partial curve, poor fit] | 
29 | COc1ccc(S(=O)(=O)N2CCCCCC2)cc1NC(=O)CCNC(=O)c1ccc(Cl)cc1 | inconclusive: 79.4 µM [inhibitor, partial curve, poor fit] | 
30 | O=C(c1ccccc1OC(F)F)N1CCN(S(=O)(=O)c2ccc3c(c2)OCCCO3)CC1 |  | inactive: 8.09%
31 | Nc1ccc(Nc2ccccc2)c(Cl)c1 |  | inactive: -11.8%
32 | COc1ccc(Cc2c(-c3ccccc3)nc3c(C)cc(Br)cn23)c(C)c1 | inconclusive: 22.4 µM [inhibitor, partial curve] | 
33 | O=C(NC1CCS(=O)(=O)C1)C1CCCC1 (stereo not given) |  | inactive: -5.91%
34 | CCCCCCC(=O)N(O)C1CC(=O)N(Cc2ccccc2)C1=O (stereo not given) | inconclusive: 39.8 µM [inhibitor, partial curve] | 
35 | C=CCSc1n[nH]c(-c2cccs2)n1 | inconclusive: 3.16 µM [inhibitor, full curve, poor fit] | 
36 | COc1nc(Nc2cccc([N+](=O)[O-])c2)nc(OC)n1 | inconclusive: 100 µM [inhibitor, single point] | 
37 | Cc1noc(C)c1-c1cncnc1NCCN1CCOCC1 | inconclusive: 44.7 µM [inhibitor, partial curve, poor fit] | 
38 | O=C(Nc1nccs1)c1cc(-c2ccco2)nc2ccccc12 | active: 44.7 µM | 
39 | CCOc1cc(C#N)c(-n2nnc3c(sc4nc(C)cc(C)c43)c2=O)cc1OCC | inconclusive: 28.2 µM [inhibitor, partial curve] | 
40 | CC(C)c1ccc(-c2nnn(CCC#N)n2)cc1 |  | inactive: -2.46%
41 | CCOC(=O)c1scc(-c2ccc(C)cc2)c1S(=O)(=O)Nc1cc(OC)ccc1OC | inconclusive: 31.6 µM [inhibitor, full curve, poor fit] | 
42 | O=C(O)CCN1CCCCC1 | inconclusive: 50.1 µM [inhibitor, partial curve, poor fit] | 
43 | O=C(NC(c1ccc(Cl)cc1)c1ccsc1)C1CCN(Cc2ccc(Oc3ccccc3)cc2)CC1 (stereo not given) | inconclusive: 70.8 µM [inhibitor, partial curve, poor fit] | 
44 | COc1cc(CNC(=O)Nc2nc(C(N)Cc3ccc(C(F)(F)F)cc3)cs2)cc(OC)c1OC (stereo not given) | inconclusive: 89.1 µM [inhibitor, single point] | 
45 | COc1ccccc1CNCc1cc(OC)c(OC)cc1OC | inconclusive: 0.501 µM [inhibitor, full curve, poor fit] | 
46 | Cc1cc(C)c(/C=C/c2onc(C)c2S(=O)(=O)N2CCC(C(=O)NCCc3ccccc3)CC2)c(C)c1 |  | inactive: -26.3%
47 | NC(=O)c1ccc(NC(=O)CCC2CCCC2)cc1Cl | inconclusive: 141 µM [inhibitor, partial curve, poor fit] | 
48 | CC(CNC(=O)Cn1ccc(NC(=O)OCc2ccccc2)nc1=O)c1ccccc1 (stereo not given) | inconclusive: 112 µM [inhibitor, single point] | 

Ordered by number of heavy atoms (falling): part of the list above
Row | SMILES | Potency | activity change, negative = inhibition
46 | Cc1cc(C)c(/C=C/c2onc(C)c2S(=O)(=O)N2CCC(C(=O)NCCc3ccccc3)CC2)c(C)c1 |  | inactive: -26.3%
43 | O=C(NC(c1ccc(Cl)cc1)c1ccsc1)C1CCN(Cc2ccc(Oc3ccccc3)cc2)CC1 (stereo not given) | inconclusive: 70.8 µM [inhibitor, partial curve, poor fit] | 
25 | Cc1ccc(OCCCn2c(-c3ccc(Cl)cc3)nc3ccccc3c2=O)c(C)c1 |  | inconclusive: -33.6% [inhibitor]
38 | O=C(Nc1nccs1)c1cc(-c2ccco2)nc2ccccc12 | active: 44.7 µM | 

Further records.

Row | SMILES | Potency | activity change, negative = inhibition
49 | O=C(Nc1nc(-c2ccc3c(c2)OCCO3)cs1)C1CCCC1 |  | inactive: 25.3%
50 | O=C(NC(=S)N1CCN(Cc2ccc3c(c2)OCO3)CC1)c1ccc(Cl)cc1 | inconclusive: 50.1 µM [inhibitor, partial curve] | 
51 | CCN1CCN(c2nc3ccccc3nc2C(C#N)S(=O)(=O)c2ccc(Cl)cc2)CC1 (stereo not given) | active: 44.7 µM | 
52 | Cc1cc(OC(=O)c2ccc(C(F)(F)F)cc2)c([N+](=O)[O-])c(=O)[nH]1 | inconclusive: 7.08 µM [inhibitor, full curve] | 
53 | COc1ccc(Cl)cc1Nc1sc(C(=O)c2ccccc2)c(N)c1C(=O)Nc1ccccc1 | inconclusive: 44.7 µM [inhibitor, partial curve, poor fit] | 
54 | O=C(O)/C=C\C(=O)NC(Cc1ccccc1)C(=O)O (stereo not given) | inconclusive: 3.55 µM [inhibitor, full curve] | 
55 | Cc1c(C(C)C)c(=O)n(-c2ccc(S(=O)(=O)NC(C)C)cc2)n1C | inconclusive: 0.282 µM [inhibitor, full curve, poor fit] | 
56 | CN(C)/C=C/C(=O)c1ccc([N+](=O)[O-])c(CS(=O)(=O)c2ccccc2)c1 | inconclusive: 44.7 µM [inhibitor, partial curve, poor fit] | 
57 | O=c1[nH]c2ccc(NC(=S)Nc3ccc(Cl)cc3)cc2[nH]1 | inconclusive: 44.7 µM [inhibitor, partial curve, poor fit] | 
58 | OC(CNC1CCCC1)COc1ccccc1Br (stereo not given) | inconclusive: 126 µM [inhibitor, single point] | 
59 | CCN(Cc1ccccc1)S(=O)(=O)c1ccc(C(=O)N(CCCN(C)C)c2nc3cc4c(cc3s2)OCCO4)cc1 | inconclusive: 70.8 µM [inhibitor, partial curve, poor fit] | 
60 | Cc1c(C)c2ccc(OCC(=O)OCc3ccccc3)c(C)c2oc1=O |  | inactive: 3.81%
61 | CN(C(=O)COC(=O)CSc1ccc([N+](=O)[O-])cc1)c1ccccc1 | inconclusive: 39.8 µM [inhibitor, partial curve, poor fit] | 
62 | O=C(Cn1c(=O)c2c(ncn2Cc2ccccc2)n(Cc2ccccc2)c1=O)NC1CC1 |  | inactive: 19.5%
63 | COCCN(Cc1ccc(C)cc1)Cc1cc(=O)n2c3c(sc2n1)CCCC3 | inconclusive: 31.6 µM [inhibitor, full curve, poor fit] | 
64 | C/C(=C/C(=O)C(F)(F)F)N1CCN(C/C=C/c2ccccc2)CC1 | inconclusive: 2.51 µM [inhibitor, full curve, poor fit] | 
65 | CCCc1nnc(SCc2ccc(OCC)cc2)n1N | inconclusive: 56.2 µM [inhibitor, partial curve, poor fit] | 
66 | CO[C@H]1C(=O)N(C(C)C)[C@H]1C1CCN(C(=O)Nc2ccc(C)c(C)c2)CC1 |  | inactive: 12.5%
67 | CC(C)NC(=O)c1ccc(CN2CCC(Cc3ccccc3)CC2)cc1 |  | inactive: 0%
68 | CCN(CC)c1ccc(NC(=O)C(C)C)cc1 | inconclusive: 3.55 µM [inhibitor, full curve, poor fit] | 
69 | COCCn1c(-n2nc(C)cc2C)nc2c1c(=O)n(C)c(=O)n2C |  | inactive: 0.0155%
70 | Cc1ccc(C(=O)n2c(N)nc3ccccc32)cc1 |  | inactive: -24.6%
